Assay results: PubChem BioAssay AID2685 (National Center for Advancing Translational Sciences (NCATS), 2010)
Screen size: about 320,000 compounds; about 2,100 (0.66%) were called active. Inconclusive means that the source gave no clear call. Such entries were picked first, then a sample of the others. Calls follow the shape of the dose curve; as a rule, active = well fitted inhibition curve with a large enough effect in the signal ratio, with a control signal flat (not every such curve was filed as active); inconclusive = small, poorly fitted or top-dose-only effect, or effect the other way, or a change in a side signal; inactive = flat fitted curve, though single readings scatter; the % refers to the signal ratio. Potencies beside an inconclusive call are fits to weak or partial responses and may not hold up.

test: qHTS Assay for Lipid Storage Modulators in Drosophila S3 Cells; conditions: BODIPY lipid droplet fluorescence, 18-24 h, cells fed with added oleic acid; lipid storage change, negative = inhibition: at 46.1 µM (top of the series) unless noted
Outline: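 Drosophila S3 cells loaded with oleic acid (400 uM, as added) and compounds at several concentrations; lipid droplets imaged by 488-nm laser-scanning cytometry, 500–530 nm intensity and object ratio to cell channel. Percent activity normalized to 20 uM Triacsin C.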
% is scaled to controls: 0 for no effect and ±100 for the full control effect; potency is read from the fitted curve at half-maximal effect.

Lipid storage change, negative = inhibition, inconclusive:
CCOC(=O)c1nnc(-c2ccccc2)[nH]c1=O -18.7% [at 9.22 µM], O=S(=O)(c1ccc(F)c(F)c1F)N1CCN(C(=S)NC2CC3CCC2C3)CC1 (stereo not given) -13.4%, Cc1ccc(Cl)cc1NC(=S)NN 13.6%, O=C(Cc1coc2ccc3ccccc3c12)NCc1ccccc1 11.7%, COc1ccc(CCNC(=O)CCc2cn(C)c3ccccc23)c(OC)c1OC 59.8%, Cc1cc(S(=O)(=O)N2CCCC(N(C)CCc3ccccn3)C2)c(C)s1 (stereo not given) -19.8%, CC1CN(C(=O)c2ccc3c(c2)OCO3)CC(C)O1 (stereo not given) 3.1%, CCS(=O)(=O)c1ccc(C(=O)Nc2ccccc2OC)c(Cl)c1Cl 6.63% [at 9.22 µM], COc1ccc(N(C(=O)c2cnccn2)C(C(=O)NC2CCCCC2)c2ccc(O)cc2)cc1 (stereo not given) 41.3%, Cc1ccc(C(=O)NCC(=O)NCCSc2ccc(Br)cc2)cc1, NC(=O)c1ccc(NC(=O)CCC(=O)N2CCN(S(=O)(=O)c3ccc(Cl)cc3)CC2)cc1 -7.03%, O=C(O)/C=C/c1cnc2ccccc2n1 -15.9%, O=C(CN1CCOCC1)Nc1ccc(Cl)cc1 20%, CC(=O)c1sc(N2CCOCC2)nc1-c1ccccc1 -41.8%, CS/C(=N\S(=O)(=O)c1ccc(N)cc1)NS(=O)(=O)c1cccs1 -21.7%, O=c1cc(-c2ccccc2)[nH]n1-c1nc2ccccc2[nH]1 -134%, CC(=O)SCC(=O)N=c1sc2cc(F)ccc2n1C 12.5%, O=Cc1ccc(N2CCCC2)c([N+](=O)[O-])c1 -54.1%, COc1ccccc1N1CCN(c2nccc(C)n2)CC1 -2.56%, Nc1c(C(=O)CSc2nnnn2-c2ccc(O)cc2)c(=O)[nH]c(=O)n1C1CC1, Cc1ccc(NC(=O)COC(=O)/C=C/c2cccs2)cc1 16.5%, Cc1ccc(S(=O)(=O)N2CCCOC2CNC(=O)C(=O)NC2CCCCC2)cc1 (stereo not given) -11.7%, O=C(COC(=O)c1cnccn1)Nc1ncc(Cl)cc1Cl, COC(=O)c1sc(N)c(C(=O)OC)c1COC(=O)[C@@H](NS(=O)(=O)c1cccc(Cl)c1)C(C)C -41.7%, O=C1NC(=Nc2cccc(O)c2)S/C1=C\c1cccc([N+](=O)[O-])c1 27%, Cc1ccc(S(=O)(=O)NNC(=O)C(=O)NNc2ccccn2)cc1 13.6%, CC1(c2ccccc2Cl)NC(=O)N(CC(=O)NCc2ccco2)C1=O (stereo not given) -42.4%, CN1CCN(C(=O)/C(=C/c2cccnc2)NC(=O)c2cccc(Br)c2)CC1 -41.2%, c1ccc2c(c1)CCN(C1=Nc3cccc4cccc1c34)C2 -98.3%, COC(=O)[C@@H](NC(=O)NC1CCCc2ccccc21)C(C)C (stereo not given in full) -6.02%, CC1CCc2c(sc(NC(=O)Cn3nc(C(F)(F)F)c4c3CCCCC4)c2C#N)C1 (stereo not given) -25.5%, O=C(c1ccc(Cl)cc1)n1cnc2ccccc21 52.7%, O=C(O)c1ccc(S(=O)(=O)c2ccccc2)cc1 -12.8%, Cc1cccc(Nc2nnc(SCc3cc(=O)n4cc(C)ccc4n3)s2)c1 21.5%, CC(=O)N1CCN(S(=O)(=O)c2ccc(C)cc2)C1C(C)C (stereo not given) -2.38%, Cc1cc(C)c2c(n1)sc1c(N3CCCCC3)ncnc12 4.93%, COc1cc(C(=O)NC(=S)Nc2nc(-c3ccc(F)cc3)cs2)cc(OC)c1OC 24.3%, CCOC(=O)C1=C(C)N=c2s/c(=C/c3cccc([N+](=O)[O-])c3O)c(=O)n2C1c1ccccc1 (stereo not given) -43.8%, Cc1ccc(N2CC(NC(=O)C(=O)c3c(C)[nH]c4ccccc34)CC2=O)cc1 (stereo not given) 3.42%, COc1ccccc1NC(=O)C(C)OC(=O)CSCC(=O)Nc1ccc(C)cc1C (stereo not given) -35.7%, O=C(CS(=O)(=O)c1c[nH]c2ccccc12)N1CCCc2ccccc21 15.8%, CCN(C(=O)Cn1ccc(C(F)(F)F)n1)c1c(N)n(Cc2ccccc2)c(=O)[nH]c1=O -26.2%, CCC1=NN2C(=N)/C(=C\c3cccn3-c3c(C)cccc3C)C(=O)N=C2S1 -21.9%, COc1ccc(CCNC(=O)C23CCC(C)(C(=O)C2Br)C3(C)C)cc1OC (stereo not given) 0.296%, Cc1onc(-c2ccccc2)c1C(=O)OCC(=O)NC(C)c1ccc(Cl)cc1 (stereo not given) 13%, Cc1ccc(S(=O)(=O)NCc2ccc(C(=O)N3CCc4ccccc4C3)cc2)cc1 16.3%, COC(=O)c1ccc(COC(=O)CCNS(=O)(=O)c2ccc(C)c(C)c2)cc1

Lipid storage change, negative = inhibition, inactive:
CCOC(=O)COc1nc2c(c(-c3ccco3)c1C#N)CCc1ccccc1-2, Oc1ccc(C[C@@H]2CNCCN2CCc2cccc3ccccc23)cc1, CCCS(=O)(=O)c1nc(S(=O)(=O)c2ccc(C)cc2)c(N2CCN(C)CC2)s1

Potency, inconclusive:
COc1ccc(CCNC(=O)Cc2cc(OC)c(OC)cc2Br)cc1OC 1.84 µM [activator, partial curve], CN(CCC1CCOCC1)C(=O)C1CCC(=O)N(CCc2ccccc2)C1 (stereo not given) 32.6 µM [activator, single point], CC(C)CC(C(=O)Oc1ccc2c3c(c(=O)oc2c1)CCC3)N1C(=O)c2ccccc2C1=O (stereo not given) 0.0052 µM [falling, full curve, poor fit], CS(=O)(=O)c1ccc(C(=O)NNC(=O)c2ccccc2-n2cccc2)cc1 0.0052 µM [falling, full curve, poor fit], O=C(NCCCO)c1cc2c([nH]c3ccccc32)c(-c2ccccc2)n1 29.1 µM [activator, single point], O=C1CNC(=O)c2c(nc3n2CCC3)N1 29.1 µM [falling, single point], CCn1c2ccc(CC(=O)O)cc2c2cc(CC(=O)O)ccc21 0.651 µM [falling, full curve], CC(C)=CCC/C(C)=C/CC/C(C)=N/O 0.13 µM [falling, full curve, poor fit], Cc1c(OCC(=O)N2C[C@H]3C[C@@H](C2)c2cccc(=O)n2C3)ccc2c3c(c(=O)oc12)CCC3 2.31 µM [falling, full curve, poor fit], Cn1c(=O)c2c(nc(NCc3cccnc3)n2Cc2cccc(C(F)(F)F)c2)n(C)c1=O 1.46 µM [activator, full curve], CCOc1cc(/C=C(\C#N)C(=O)Nc2cccc(C(=O)O)c2)cc(Br)c1OC(=O)c1ccc(OC)cc1 6.51 µM [activator, single point], CCc1cccc(NS(=O)(=O)c2c(C)nc3scc(C)n3c2=O)c1 6.51 µM [falling, single point], O=C(COC(=O)C1=NN(c2ccccc2)C(=O)CC1)NCc1ccccc1Cl 1.16 µM [falling, full curve], Cc1cc(NC(=O)c2cc(-c3ccc(Br)cc3)on2)no1 0.184 µM [rising, full curve, poor fit], Cc1cc(C(=O)NNC(=O)Nc2cccc(C(F)(F)F)c2)no1 7.31 µM [falling, partial curve, poor fit], Cc1ccccc1OCc1ccc(C(=O)N2CCOCC2)o1 29.1 µM [activator, single point], COc1cc(CNCCc2ccccc2)ccc1OCC(N)=O 0.82 µM [falling, single point], CN(C)c1ccc(C(CNS(=O)(=O)c2cccc([N+](=O)[O-])c2)N2CCOCC2)cc1 (stereo not given) 16.4 µM [activator, partial curve, poor fit], CCOC(=O)N1CCN(C(=O)c2nn(-c3ccc(C)cc3)c(=O)c3c2c2ccccc2n3C)CC1 6.51 µM [falling, single point], CC1CCCN(C(=O)C2CCN(S(=O)(=O)c3cccc4nonc34)CC2)C1 (stereo not given) 29.1 µM [activator, single point], COc1ccc(S(=O)(=O)N(C)CC(=O)O)c2ccccc12 4.11 µM [falling, partial curve, poor fit], C=C(C)CN(CC)c1nc(N)c(C#N)c(CC#N)c1C#N 6.51 µM [falling, single point], C=CCn1c2ccccc2c(=O)c2cc(C#Cc3ccccn3)ccc21 0.0164 µM [falling, full curve, poor fit], COC(=O)C1=C(C)Nc2[nH]c(=S)[nH]c(=O)c2C1c1ccc(O)cc1 (stereo not given) 6.51 µM [falling, single point], COc1ccc(-c2cc(C(F)(F)F)n3nc(C(=O)N4CCOCC4)c(Cl)c3n2)cc1 1.03 µM [activator, full curve, poor fit]
